Data published in patent US20100210511A1, “Combination VEGFR2 Therapy with Temozolomide” (Bristol-Myers Squibb Company, priority 2009, published 2010).
At least one compound was matched to its structure with a doubt left.

Test system: U87vIIILuc Glioblastoma Cells
Test: Survival in U87vIIILuc glioma model, triple administration with radiation therapy (Example 3)
Type: in vivo, NOD-SCID mice
Conditions: Compound 2 & RT versus RT
Experimental: Tumor implantation was performed as described above in Example 2.
Drug Administration. After randomization, 32 mice were divided into 4 groups (PBS, Radiation Therapy (RT) only, Compound 2 & RT, and Compound 1+Compound 2 & RT) with 8 mice per group. PBS and Compound 1 (60 mg/kg) were delivered intraperitoneally in 200 ul IP volumes three times per week throughout the study until mice reached established criteria for euthanasia. Compound 2 (TMZ) was delivered orally (34 mg/kg) once daily for five days. Compound 2 and RT treatments were initiated after the third dose of Compound 1.
Radiation Therapy. Mice were shielded in a custom-designed block with an aperture of 0.8 cm. After anesthetic induction (ketamine 118 mg/kg i.p.+xylazine 11.8 mg/kg i.p.), mice were irradiated to a total dose of 10 Gy in three daily fractions. 10 Gy were experimentally determined to be the highest tolerable dose for this model.
Results are shown in FIG. 5 (Compound 1=VEGFR2 specific inhibitor represented by SEQ ID NO: 4; Compound 2=TMZ; RT=Radiation Therapy; PBS=phosphate buffered saline (vehicle control)). The Y-axis indicates percent survival within each group over the length of the study Animals were followed for survival and sacrificed at the first sign of morbidity. Mean survival was 22, 23, 33 and 47 days for PBS, Radiation Therapy, Compound 2 & RT, and Compound 1+Compound 2 & RT, respectively.

Cn1nnc2c(C(N)=O)ncn2c1=O [TMZ, temozolomide]
Enhancement of the response to RT (in words): did not enhance the response to RT
